Assay results as given in the supplement of paper PMC8497498.
± gives the standard deviation of the averaged measurements. This is one part of the list. The data scatter; read single values as rough.

What was measured:
Settings in all cases: 10 µM
[1] = test system: Plasmodium vivax liver stage (primary human hepatocyte culture); assay: hypnozoite quantity inhibition (% inhibition); higher = more active against hypnozoites
[2] = test system: Plasmodium vivax liver stage (primary human hepatocyte culture); assay: schizont net growth area inhibition (% inhibition); higher = more active against liver schizonts
[3] = test system: primary human hepatocytes; assay: hepatic nuclei reduction relative to DMSO (100 - % of negative control); higher = more toxic to hepatocytes
[4] = assay mode: Prophylactic (treated before or shortly after infection), fixed day 6 post-infection
[5] = assay mode: Radical Cure (treated from day 5 post-infection for 3 days), fixed day 8 post-infection

SMILES	hypnozoite quantity inhibition [1, 4]	hypnozoite quantity inhibition [1, 5]	schizont net growth area inhibition [2, 4]	schizont net growth area inhibition [2, 5]	hepatic nuclei reduction [3, 4] [%]	hepatic nuclei reduction [3, 5] [%]
O=C(Nc1nnc(-c2ccc(Cl)s2)o1)c1ccc(Cl)s1	-71	1	11.2	-57.1	-1	10
Nc1ncnc2c1ncn2[C@@H]1O[C@H](COS(=O)(=O)NC(=O)c2ccccc2O)[C@@H](O)[C@H]1O	21	12	-20.3	21.3	3	-11
c1ccc2cc3c(Nc4ccc(N5CCOCC5)cc4)ccnc3cc2c1	-13.2	35.9	-80.2	-19.3	-7	-4
O=C(Nc1ccc(N2CCN(Cc3ccccc3)CC2)cc1)c1cccs1	16.4	1.9	25.6	51.4	-7	-8
CCN(CC)C(=O)N1CCN(C)CC1	12	-34	-20.9	-4.6	-10	3
COc1ccc(-c2c(C)nn3c(N)c(C#N)cnc23)cc1OC	104	31.9	95.4	99	2	-9
c1ccc(Oc2ccc(-c3cc(N4CCOCC4)[nH]n3)cc2)cc1	1	-7	8.5	-91.6	-13	0
CCCc1c(CC)c(=N)c2ccccc2n1C	41.1	26.7	24.5	32.9	13	4
COc1ccc(C(=O)C2CC2c2ccc(Cl)cc2)cc1 (stereo not given)	-33.3	22.1	27.6	-4.6	-11	-1
O=C(NCC1Cc2cccc(-c3ccncc3)c2O1)c1csc2c1CCCC2 (stereo not given)	-10.7	-0.8	15.1	-14.8	-3	-7
Cc1ccccc1OCCSc1nc2ccc(NC(=O)c3cccs3)cc2s1	-1.9	23.7	37.4	-0.3	-3	-5
Cc1cc(C)c2cc(C(=O)NC3CCCCCCC3)[nH]c2c1	3	-78	-30.5	-128	3	-6
O=C(NC1=NCCS1)c1sc2cc(F)ccc2c1Cl	-14	11	-1.6	-74.2	-2	0
Cc1ccnc(NC(c2cccc(OCc3ccccc3)c2)c2ccc3cccnc3c2O)c1 (stereo not given)	-7.2	33.6	86.6	7.5	-16	14
O=C(NCc1ccco1)C1CCN(S(=O)(=O)c2ccc(Cl)cc2)CC1	-11.4	40.1	1.4	-1.8	10	0
CCC(=O)Nc1nnc(Cc2ccc(OC)c(OC)c2)s1	-28.1	19.8	-16	-3.6	-15	4
CC(C)c1ncc(-c2ccncc2)c([C@H]2CC[C@H](CNC(=O)c3cccnc3)CC2)n1	8	-7	30	-125	-3	-1
O=C(NO)C1(CS(=O)(=O)c2ccc(Oc3ccc(Cl)cc3)cc2)CCOCC1	-80	12	-71.9	46.7	4	5
COc1ccc(-c2cc3c(nn2)-c2ccccc2C3=O)cc1	-34.8	40.5	-37	30.1	-10	-7
COc1ccc(C2N(C)c3ccccc3N2C)cc1	-23.6	58.8	-36.9	55.5	-9	3

Full records from above:
`O=C(Nc1ccc(N2CCN(Cc3ccccc3)CC2)cc1)c1cccs1` is listed as hypnozoite quantity inhibition [1, 4]: 16.4; hypnozoite quantity inhibition [1, 5]: 1.9; schizont net growth area inhibition [2, 4]: 25.6; schizont net growth area inhibition [2, 5]: 51.4; hepatic nuclei reduction [3, 4] [%]: -7; hepatic nuclei reduction [3, 5] [%]: -8
`CCC(=O)Nc1nnc(Cc2ccc(OC)c(OC)c2)s1` is listed as hypnozoite quantity inhibition [1, 4]: -28.1; hypnozoite quantity inhibition [1, 5]: 19.8; schizont net growth area inhibition [2, 4]: -16; schizont net growth area inhibition [2, 5]: -3.6; hepatic nuclei reduction [3, 4] [%]: -15; hepatic nuclei reduction [3, 5] [%]: 4
`COc1ccc(-c2cc3c(nn2)-c2ccccc2C3=O)cc1` is listed as hypnozoite quantity inhibition [1, 4]: -34.8; hypnozoite quantity inhibition [1, 5]: 40.5; schizont net growth area inhibition [2, 4]: -37; schizont net growth area inhibition [2, 5]: 30.1; hepatic nuclei reduction [3, 4] [%]: -10; hepatic nuclei reduction [3, 5] [%]: -7

Later entries.

SMILES	hypnozoite quantity inhibition [1, 4]	hypnozoite quantity inhibition [1, 5]	schizont net growth area inhibition [2, 4]	schizont net growth area inhibition [2, 5]	hepatic nuclei reduction [3, 4] [%]	hepatic nuclei reduction [3, 5] [%]
CCOc1ccc(-c2nonc2NC(=O)c2cccc(C)c2)cc1OCC	37.9	48.2	67.8	41.5	8	-4
COc1ccc(-c2cncc3ccc(C(=O)NCCCn4ccnc4)nc23)cc1	52	-44	94.6	107	-1	-10
CCOC(=O)c1cc(-c2csc(Nc3c(C)cc(C)cc3C)n2)on1	-2	1	42.6	-29.2	-6	-4
Cc1ccc2nc(Cl)c(CNCc3cccs3)cc2c1	-62	6	-0.3	-98.9	-10	-2
O=C(NC(c1ccccc1)c1ccc2cccnc2c1O)c1ccccc1 (stereo not given)	34.8	-14.4	95.5	42.5	-1	-5
Cn1c(C(=O)c2cccc3ccccc23)nc2ccccc21	37.3	15.6	18.5	26.8	6	0
CCc1nc2ccccc2n1CC(O)COc1cc(C)ccc1Cl (stereo not given)	-14	14	18.2	-28.6	-2	11
COc1ccc(-c2cn3c(C(=O)Nc4ccccc4Cl)c(-c4ccccc4)c4c3n2CCCC4)cc1	-19.1	22.1	25.4	-11.7	-24	-3
Cn1c(=O)c2cc(C(=O)NCCCN3CCCCCC3)sc2c2ccccc21	-4.4	21	13.1	-8.7	-2	-1
CCOc1ccc(-n2cc(-c3ccccc3)c3c(SCc4cc(C)ccc4C)ncnc32)cc1	-8	40.5	-47.9	72.7	-3	17
NC(CC(=O)c1ccc(Cl)cc1Cl)C(Cl)(Cl)Cl (stereo not given)	-9	-34	-58	-15.4	-9	-3
COc1cc(CN2CCC3(C=Cc4ccccc43)CC2)cc2c1OCO2	-2	-23	-0.6	-33.3	4	-1
CCCCS(=O)(=O)Nc1ccc2cnn(C)c2c1	-33	-41	12.8	-65.3	-6	-1
CN1CCN(c2ncnc3c2[nH]c2ccc(Cl)cc23)CC1	8.8	12.8	34.8	-47.3	-1	-10
CN1CCN(c2nccc3nc(-c4ccc(F)c(F)c4)[nH]c23)CC1	-93	-41	-59.8	-0.9	-11	-2
Oc1ccc(Cl)cc1CNc1nc2ccccc2[nH]1	14.5	26.5	24.5	-70.2	4	-7
CCOC(=O)C1=C(C)N=c2sc(=Cc3cc(Cl)ccc3O)c(=O)n2C1c1ccc(OC)cc1 (stereo not given)	23.2	15.3	11.9	30.6	-3	13
Cc1ccc(-c2cc(C(=O)Nc3ccc(S(=O)(=O)N4CCCCC4)cc3)[nH]n2)c(O)c1	3.2	15.6	50.1	-66.4	-1	-3
Cc1cccc(-n2ncc3c(=O)[nH]c(-n4nc(C)cc4NC(=O)c4cc5ccccc5o4)nc32)c1	45.5	15.6	100	34	7	-3
CCOc1ccc(C2N(C)c3ccccc3N2C)cc1	12.8	61.1	-114	-31.5	14	0

SMILES	hypnozoite quantity inhibition [1, 4]	hypnozoite quantity inhibition [1, 5]	schizont net growth area inhibition [2, 4]	schizont net growth area inhibition [2, 5]	hepatic nuclei reduction [3, 4] [%]	hepatic nuclei reduction [3, 5] [%]
CCOC(=O)NC(=O)c1ccsc1NC(=O)c1nc2ccccc2s1	-59	19	4.8	-103	-4	6
CCCCc1ccc(NC(=O)Nc2ccc(O[C@H]3CCCC[C@@H]3N(C)c3ccccc3)c(F)c2)cc1	25	0	-14.9	20.1	-5	-2
O=C(Nc1ccc(CN2CCOCC2)cc1)c1ccc(-c2cc(Cl)ccc2Cl)o1	-47.4	1.5	5.1	-54.6	-12	-8
CC(C)C(Oc1cccc2ccccc12)C(=O)O (stereo not given)	41	19	42.2	84.2	-1	-10
CC(C(=O)Nc1ccc2oc(-c3ccncc3)nc2c1)c1ccccc1 (stereo not given)	31	1	27.2	-23.7	1	-14
Cc1cc(Nc2ccc(C)c(Cl)c2)n2nc(C(F)(F)F)nc2n1	-31	42.7	55.2	52.2	-4	-4
CCOc1cc(Cl)c(C(C)NC(=O)c2cccc(OC)c2)cc1OCC (stereo not given)	-1.3	34.6	48.7	40.8	-1	-6
O=C(Nc1cccnn1)N1CCC(=Cc2cccc(Oc3ccc(C(F)(F)F)cn3)c2)CC1	51	42	48.6	-14.3	3	-8
CSc1nc(O)nc(-c2ccc(Cl)cc2)n1	-26	3.6 ± 20	53.9	11.9 ± 12	-12	-5.5 ± 0.71
Nc1nc(N)c2c3c(sc2n1)CN(Cc1ccccc1)CC3	4	-51	5.2	-101	-5	-11
O=C1C(O)=C([C@H]2CC[C@H](c3ccc(Cl)cc3)CC2)C(=O)c2ccccc21	-24	7	58.3	51.4	-6	-3
Cc1cc(NC(=O)c2cccc(C(F)(F)F)c2)n(-c2nc(-c3ccc4c(c3)OCO4)cs2)n1	-41.1	10.1	-52.8	-5.5	3	-8
CC(C)(C)c1cnc(NC(=O)c2ccccc2O)s1	-24	24	-28.7	11.5	-3	-4
Cc1nc2ccccn2c1C(=O)NCc1ccc(Cl)cc1	8	-25	15.8	-82.6	-3	-6
CN1CCN(c2c3c(c(C#N)c4nc5ccccc5n24)CCC3)CC1	-26.6	19.8	37.8	-20.2	-13	-4
CCCNC(=O)N1CCC2(CC1)CC(=O)c1cc(C)ccc1O2	-5	-60	-58	-24.6	-6	-4
CCN(CC)CCNc1ccnc2cc(Cl)ccc12	-36.2	40.5	32.6	-18.4	-4	4
COc1cccc(-c2nc3c(N4CCCC4)cccc3n2CC2CCCN2)n1 (stereo not given)	38	-2	-23.7	-145	-4	-21
Cc1ccc(Nc2nc(-c3ccccn3)cs2)cc1	20.9	18.3	23.5	-26.1	-4	-2
O=C(C1CCN(c2nnc(-n3cccc3)s2)CC1)N1CCC(Cc2ccccc2)CC1	-7	-38	-41.5	-21.2	-6	-4
